Chains of the proteins cited; added tags and fusions are not shown. Lines headed by an entry give the natural chain unless they say otherwise; changes in a name come on top.
UniProt O75182: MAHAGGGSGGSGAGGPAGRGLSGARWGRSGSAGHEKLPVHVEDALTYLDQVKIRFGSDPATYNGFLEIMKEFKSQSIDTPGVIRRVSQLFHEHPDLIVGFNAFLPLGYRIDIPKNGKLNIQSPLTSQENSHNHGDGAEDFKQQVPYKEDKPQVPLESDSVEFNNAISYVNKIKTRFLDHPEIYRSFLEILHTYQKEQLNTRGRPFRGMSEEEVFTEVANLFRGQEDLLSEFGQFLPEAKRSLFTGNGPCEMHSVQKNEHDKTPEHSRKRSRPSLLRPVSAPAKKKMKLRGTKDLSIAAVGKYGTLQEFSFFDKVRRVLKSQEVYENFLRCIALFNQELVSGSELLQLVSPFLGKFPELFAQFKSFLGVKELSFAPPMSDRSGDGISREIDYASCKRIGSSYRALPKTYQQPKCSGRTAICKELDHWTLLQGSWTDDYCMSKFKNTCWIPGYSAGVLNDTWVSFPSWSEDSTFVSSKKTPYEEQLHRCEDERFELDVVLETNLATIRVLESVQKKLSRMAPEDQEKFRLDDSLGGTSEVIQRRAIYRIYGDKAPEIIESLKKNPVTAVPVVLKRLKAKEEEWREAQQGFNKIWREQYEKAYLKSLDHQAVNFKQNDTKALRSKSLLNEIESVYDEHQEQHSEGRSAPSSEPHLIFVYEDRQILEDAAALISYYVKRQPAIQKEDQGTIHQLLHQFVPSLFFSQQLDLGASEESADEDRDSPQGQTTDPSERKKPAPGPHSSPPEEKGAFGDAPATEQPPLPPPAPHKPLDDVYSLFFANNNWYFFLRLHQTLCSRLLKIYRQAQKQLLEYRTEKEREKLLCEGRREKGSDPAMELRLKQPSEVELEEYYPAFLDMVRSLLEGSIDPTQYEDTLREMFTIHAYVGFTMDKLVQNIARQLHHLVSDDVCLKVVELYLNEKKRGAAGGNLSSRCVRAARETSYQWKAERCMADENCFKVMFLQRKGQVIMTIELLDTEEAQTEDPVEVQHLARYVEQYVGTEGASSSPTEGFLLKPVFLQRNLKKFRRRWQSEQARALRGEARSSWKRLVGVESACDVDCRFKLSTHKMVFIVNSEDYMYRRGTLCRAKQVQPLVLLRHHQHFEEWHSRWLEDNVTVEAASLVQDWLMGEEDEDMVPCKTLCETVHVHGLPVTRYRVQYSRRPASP
UniProt O43660: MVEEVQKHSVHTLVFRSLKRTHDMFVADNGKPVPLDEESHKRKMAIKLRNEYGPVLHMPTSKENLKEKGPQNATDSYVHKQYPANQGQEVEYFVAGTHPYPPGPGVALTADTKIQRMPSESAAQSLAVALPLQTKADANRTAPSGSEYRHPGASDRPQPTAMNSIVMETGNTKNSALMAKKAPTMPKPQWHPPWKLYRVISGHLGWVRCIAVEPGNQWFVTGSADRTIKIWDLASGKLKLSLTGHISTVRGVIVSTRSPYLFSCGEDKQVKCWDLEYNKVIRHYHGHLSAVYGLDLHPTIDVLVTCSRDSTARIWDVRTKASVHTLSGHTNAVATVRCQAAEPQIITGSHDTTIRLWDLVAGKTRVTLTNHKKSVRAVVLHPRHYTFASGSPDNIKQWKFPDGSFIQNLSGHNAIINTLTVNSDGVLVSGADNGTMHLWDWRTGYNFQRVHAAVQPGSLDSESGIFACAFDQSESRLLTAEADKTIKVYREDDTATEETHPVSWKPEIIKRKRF
UniProt O43617, whole entry: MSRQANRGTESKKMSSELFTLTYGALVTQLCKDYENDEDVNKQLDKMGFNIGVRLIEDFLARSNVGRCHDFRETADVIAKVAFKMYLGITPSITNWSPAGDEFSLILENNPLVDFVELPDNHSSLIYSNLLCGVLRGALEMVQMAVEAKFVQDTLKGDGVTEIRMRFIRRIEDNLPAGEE
UniProt O75151: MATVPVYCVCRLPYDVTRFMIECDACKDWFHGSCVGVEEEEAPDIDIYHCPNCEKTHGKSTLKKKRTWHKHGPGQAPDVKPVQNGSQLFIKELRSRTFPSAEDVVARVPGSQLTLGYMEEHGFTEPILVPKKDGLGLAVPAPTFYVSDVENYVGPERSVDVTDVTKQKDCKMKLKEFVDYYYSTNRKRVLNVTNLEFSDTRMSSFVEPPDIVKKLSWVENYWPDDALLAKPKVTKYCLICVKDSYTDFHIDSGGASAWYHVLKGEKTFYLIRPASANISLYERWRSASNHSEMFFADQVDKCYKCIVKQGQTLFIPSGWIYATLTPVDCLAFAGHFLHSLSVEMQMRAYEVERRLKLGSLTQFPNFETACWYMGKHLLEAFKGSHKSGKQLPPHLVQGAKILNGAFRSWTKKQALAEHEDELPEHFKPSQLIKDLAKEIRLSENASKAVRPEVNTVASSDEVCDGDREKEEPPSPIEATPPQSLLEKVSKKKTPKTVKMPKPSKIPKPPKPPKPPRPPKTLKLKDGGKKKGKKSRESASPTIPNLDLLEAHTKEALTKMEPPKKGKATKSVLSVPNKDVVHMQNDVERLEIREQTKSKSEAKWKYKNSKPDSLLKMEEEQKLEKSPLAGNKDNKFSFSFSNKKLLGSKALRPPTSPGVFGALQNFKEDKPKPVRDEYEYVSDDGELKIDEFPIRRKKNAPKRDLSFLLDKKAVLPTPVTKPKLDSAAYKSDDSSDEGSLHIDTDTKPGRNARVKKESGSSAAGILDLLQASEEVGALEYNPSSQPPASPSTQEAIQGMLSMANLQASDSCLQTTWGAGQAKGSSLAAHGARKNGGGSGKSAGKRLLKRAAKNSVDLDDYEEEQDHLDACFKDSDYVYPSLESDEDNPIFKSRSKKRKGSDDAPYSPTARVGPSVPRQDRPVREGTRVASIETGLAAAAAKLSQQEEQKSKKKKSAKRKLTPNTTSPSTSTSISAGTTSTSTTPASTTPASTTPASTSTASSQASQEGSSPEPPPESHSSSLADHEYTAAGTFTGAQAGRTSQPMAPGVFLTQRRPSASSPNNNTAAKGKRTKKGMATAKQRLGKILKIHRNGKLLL
UniProt O43143: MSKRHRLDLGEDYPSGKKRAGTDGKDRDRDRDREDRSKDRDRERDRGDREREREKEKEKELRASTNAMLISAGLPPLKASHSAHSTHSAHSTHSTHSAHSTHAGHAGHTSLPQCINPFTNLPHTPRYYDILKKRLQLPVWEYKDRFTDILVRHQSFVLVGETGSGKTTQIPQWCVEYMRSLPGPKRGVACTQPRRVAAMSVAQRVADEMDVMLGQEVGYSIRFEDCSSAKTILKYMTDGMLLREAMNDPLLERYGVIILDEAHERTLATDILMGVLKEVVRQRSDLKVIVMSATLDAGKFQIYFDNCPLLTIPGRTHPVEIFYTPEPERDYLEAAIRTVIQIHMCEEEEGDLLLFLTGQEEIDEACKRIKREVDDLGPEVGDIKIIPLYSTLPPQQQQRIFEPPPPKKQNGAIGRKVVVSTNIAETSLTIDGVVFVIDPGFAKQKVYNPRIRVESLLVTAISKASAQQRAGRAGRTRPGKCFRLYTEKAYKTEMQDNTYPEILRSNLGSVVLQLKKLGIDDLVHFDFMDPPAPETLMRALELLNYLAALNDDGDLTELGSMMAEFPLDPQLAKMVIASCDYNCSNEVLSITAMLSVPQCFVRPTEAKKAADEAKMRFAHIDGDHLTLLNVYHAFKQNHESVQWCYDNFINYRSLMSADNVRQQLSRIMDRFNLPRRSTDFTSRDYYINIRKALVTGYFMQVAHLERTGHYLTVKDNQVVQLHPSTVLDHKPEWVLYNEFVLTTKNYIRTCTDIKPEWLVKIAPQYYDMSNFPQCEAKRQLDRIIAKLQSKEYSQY
UniProt O43159: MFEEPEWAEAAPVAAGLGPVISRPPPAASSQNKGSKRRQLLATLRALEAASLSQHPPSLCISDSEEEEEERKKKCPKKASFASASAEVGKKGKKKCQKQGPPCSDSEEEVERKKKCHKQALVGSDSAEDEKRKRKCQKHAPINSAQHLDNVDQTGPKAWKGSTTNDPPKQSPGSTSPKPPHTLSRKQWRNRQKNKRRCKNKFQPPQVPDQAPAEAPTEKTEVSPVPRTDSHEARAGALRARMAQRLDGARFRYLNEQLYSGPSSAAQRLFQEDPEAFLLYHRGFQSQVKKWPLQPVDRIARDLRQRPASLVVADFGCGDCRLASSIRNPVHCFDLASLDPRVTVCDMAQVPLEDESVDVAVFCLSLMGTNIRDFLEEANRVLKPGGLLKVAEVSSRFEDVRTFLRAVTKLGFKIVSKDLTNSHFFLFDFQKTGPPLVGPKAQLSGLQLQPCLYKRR
UniProt O75155: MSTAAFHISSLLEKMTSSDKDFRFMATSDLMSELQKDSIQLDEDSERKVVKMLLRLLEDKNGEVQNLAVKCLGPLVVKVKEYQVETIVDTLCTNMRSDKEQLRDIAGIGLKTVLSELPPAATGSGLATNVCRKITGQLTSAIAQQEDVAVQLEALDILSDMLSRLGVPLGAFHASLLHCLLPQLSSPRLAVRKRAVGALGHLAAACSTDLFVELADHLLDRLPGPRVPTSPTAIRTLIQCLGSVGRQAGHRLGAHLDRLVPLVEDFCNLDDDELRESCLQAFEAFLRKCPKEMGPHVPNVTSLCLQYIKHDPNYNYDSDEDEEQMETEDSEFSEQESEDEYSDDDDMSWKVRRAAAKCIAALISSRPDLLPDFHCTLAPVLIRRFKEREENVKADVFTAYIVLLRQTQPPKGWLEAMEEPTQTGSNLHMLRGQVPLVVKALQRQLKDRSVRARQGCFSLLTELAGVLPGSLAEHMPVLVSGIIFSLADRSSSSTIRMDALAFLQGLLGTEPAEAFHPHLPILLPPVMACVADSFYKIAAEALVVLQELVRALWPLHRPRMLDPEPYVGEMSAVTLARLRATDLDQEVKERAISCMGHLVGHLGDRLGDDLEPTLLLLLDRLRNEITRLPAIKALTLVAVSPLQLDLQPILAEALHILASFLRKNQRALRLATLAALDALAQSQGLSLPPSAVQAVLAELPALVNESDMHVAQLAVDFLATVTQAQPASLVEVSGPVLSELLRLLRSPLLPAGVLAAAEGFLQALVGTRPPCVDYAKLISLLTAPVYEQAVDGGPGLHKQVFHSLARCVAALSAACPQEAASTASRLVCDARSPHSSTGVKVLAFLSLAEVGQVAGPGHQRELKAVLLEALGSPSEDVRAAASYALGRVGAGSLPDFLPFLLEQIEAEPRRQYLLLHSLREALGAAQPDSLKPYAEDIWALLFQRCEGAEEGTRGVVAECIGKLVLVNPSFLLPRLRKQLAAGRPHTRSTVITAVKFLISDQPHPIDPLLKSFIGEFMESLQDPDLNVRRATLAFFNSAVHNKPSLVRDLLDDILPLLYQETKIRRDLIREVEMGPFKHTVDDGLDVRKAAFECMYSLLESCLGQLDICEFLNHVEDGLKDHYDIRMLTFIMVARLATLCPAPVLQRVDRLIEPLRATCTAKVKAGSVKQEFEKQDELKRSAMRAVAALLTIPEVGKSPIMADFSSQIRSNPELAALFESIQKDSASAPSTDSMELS
UniProt O60291: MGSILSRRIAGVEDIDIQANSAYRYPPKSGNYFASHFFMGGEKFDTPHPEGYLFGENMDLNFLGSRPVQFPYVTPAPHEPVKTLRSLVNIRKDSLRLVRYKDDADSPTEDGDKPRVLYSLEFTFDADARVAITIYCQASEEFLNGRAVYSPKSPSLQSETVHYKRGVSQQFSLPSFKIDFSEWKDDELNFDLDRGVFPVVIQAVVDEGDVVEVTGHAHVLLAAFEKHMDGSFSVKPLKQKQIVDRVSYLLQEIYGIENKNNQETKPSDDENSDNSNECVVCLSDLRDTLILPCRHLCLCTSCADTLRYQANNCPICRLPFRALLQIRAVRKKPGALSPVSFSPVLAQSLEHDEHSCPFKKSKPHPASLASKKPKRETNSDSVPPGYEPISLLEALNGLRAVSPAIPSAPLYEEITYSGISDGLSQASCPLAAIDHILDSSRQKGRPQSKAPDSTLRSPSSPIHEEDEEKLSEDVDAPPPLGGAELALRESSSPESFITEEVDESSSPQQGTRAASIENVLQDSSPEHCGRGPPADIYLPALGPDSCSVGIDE
UniProt O60224: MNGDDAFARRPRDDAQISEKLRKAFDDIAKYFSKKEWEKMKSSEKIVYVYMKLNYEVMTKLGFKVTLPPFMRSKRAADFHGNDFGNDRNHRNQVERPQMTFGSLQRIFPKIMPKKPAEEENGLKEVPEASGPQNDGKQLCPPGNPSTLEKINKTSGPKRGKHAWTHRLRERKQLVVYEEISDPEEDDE
UniProt O75177, whole entry: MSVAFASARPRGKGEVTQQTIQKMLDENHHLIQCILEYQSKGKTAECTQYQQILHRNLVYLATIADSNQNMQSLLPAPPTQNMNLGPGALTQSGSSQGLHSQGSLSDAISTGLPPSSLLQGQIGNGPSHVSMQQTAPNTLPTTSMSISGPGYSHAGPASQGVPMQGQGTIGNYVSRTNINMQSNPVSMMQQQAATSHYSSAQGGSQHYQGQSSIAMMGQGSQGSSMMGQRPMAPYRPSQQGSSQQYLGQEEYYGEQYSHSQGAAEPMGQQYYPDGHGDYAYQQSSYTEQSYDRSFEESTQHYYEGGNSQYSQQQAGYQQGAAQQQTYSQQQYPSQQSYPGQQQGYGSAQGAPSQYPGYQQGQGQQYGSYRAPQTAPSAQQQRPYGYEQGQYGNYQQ

Some of the results follow. Most entries show no effect beyond the scatter of the controls.
These targets were tested with CN[C@@H]1C[C@H]2O[C@@](C)([C@@H]1OC)n1c3ccccc3c3c4c(c5c6ccccc6n2c5c31)C(=O)NC4 [staurosporine] (assay: log2 fold change of tryptic peptide abundance, ligand vs vehicle (limited proteolysis) (log2 ratio); higher = more trypsin-susceptible (destabilized)). Conditions: ligand concentration: 20 uM; sample: K562 cleared lysate; digestion: 4 min, 22 C (HT-PELSA RT4min, Orbitrap Astral).
“BUB1B (peptide sequence: FLNLWLK, peptide start residue: 121) (UniProt O60566)” gave a log2 fold change of -0.303. With “SIN3B (peptide sequence: EIDYASCK, peptide start residue: 388) (UniProt O75182)” the log2 fold change was -0.32. “COCH (peptide sequence: SSTQEATGQAVSTAHPPTGK, peptide start residue: 128) (UniProt O43405)” gave a log2 fold change of -0.148. In the case of “UGDH (peptide sequence: RVLDGLHNELQTIGFQIETIGKK, peptide start residue: 443) (UniProt O60701)”, the log2 fold change is reported as -0.273. “CBFA2T3 (peptide sequence: QAMSELQK, peptide start residue: 500) (UniProt O75081)” showed a log2 fold change of 0.114. With “UniProt O43303 (peptide sequence: AAEMGMPNKK, peptide start residue: 927)” the log2 fold change was 0.469. “PLRG1 (peptide sequence: LRNEYGPVLHMPTSK, peptide start residue: 48) (UniProt O43660)” showed a log2 fold change of -0.247. Target “ROCK2 (peptide sequence: LYTLEEHLSNEMQAKEELEQK, peptide start residue: 449) (UniProt O75116)” has a log2 fold change of -0.462. “TRAPPC3 (peptide sequence: RIEDNLPAGEE, peptide start residue: 170) (UniProt O43617)” was tested, and the log2 fold change was 0.143. For “PHF2 (peptide sequence: VASIETGLAAAAAK, peptide start residue: 902) (UniProt O75151)”, the log2 fold change was -0.0457. In the case of “UniProt O43913 (peptide sequence: NIEPHLKK, peptide start residue: 256)”, the log2 fold change is reported as 0.438. Target “DHX15 (peptide sequence: IFEPPPPK, peptide start residue: 400) (UniProt O43143)” has a log2 fold change of 0.261. Target “UniProt O43159 (peptide sequence: VAEVSSRFEDVR, peptide start residue: 390)” has a log2 fold change of -0.468. Work on “CBFA2T2 (peptide sequence: IQAMSEVQK, peptide start residue: 450) (UniProt O43439)” yielded a log2 fold change of -0.626. With “PFDN1 (peptide sequence: SVKEAEDNIREMLMAR, peptide start residue: 104) (UniProt O60925)” the log2 fold change was 0.286. Work on “CYTH3 (peptide sequence: ACKTEADGR, peptide start residue: 337) (UniProt O43739)” yielded a log2 fold change of -0.583. “BRD4 (peptide sequence: PVIRPPEQNAPPPGAPDKDK, peptide start residue: 1160) (UniProt O60885)” showed a log2 fold change of 1.1. “SH3BP5 (peptide sequence: QFDSAWQEMLNHATQR, peptide start residue: 150) (UniProt O60239)” showed a log2 fold change of -0.405. With “ZFC3H1 (peptide sequence: MPSSSLSESSPR, peptide start residue: 119) (UniProt O60293)” the log2 fold change was 0.346. “VAMP4 (peptide sequence: HLNDDDVTGSVK, peptide start residue: 8) (UniProt O75379)” gave a log2 fold change of -0.0131. “CAND2 (peptide sequence: MTSSDKDFR, peptide start residue: 15) (UniProt O75155)” was tested, and the log2 fold change was 0.472. In the case of “MGRN1 (peptide sequence: PVQFPYVTPAPHEPVK, peptide start residue: 67) (UniProt O60291)”, the log2 fold change is reported as 0.185. Target “CHMP2A (peptide sequence: QKLETQEK, peptide start residue: 34) (UniProt O43633)” has a log2 fold change of 0.309. “DNAJC6 (peptide sequence: DNLKDTLK, peptide start residue: 39) (UniProt O75061)” showed a log2 fold change of -0.407. For “UniProt O60224 (peptide sequence: EVPEASGPQNDGK, peptide start residue: 125)”, the log2 fold change was -0.00289. “SS18L1 (peptide sequence: TAECTQYQQILHR, peptide start residue: 44) (UniProt O75177)” was tested, and the log2 fold change was -0.495.

From the supplement of paper PMC12819154, “High-throughput peptide-centric local stability assay extends protein–ligand identification to membrane proteins, tissues and bacteria” (Nature Structural & Molecular Biology, 2025)
